We go through 6 molecules from article PMC8316464.

Protein sequences, listed by entry. Tags and fused reporters are not part of them. Lines headed by an entry give the natural chain unless they say otherwise; changes in a name come on top.
UniProt Q07817: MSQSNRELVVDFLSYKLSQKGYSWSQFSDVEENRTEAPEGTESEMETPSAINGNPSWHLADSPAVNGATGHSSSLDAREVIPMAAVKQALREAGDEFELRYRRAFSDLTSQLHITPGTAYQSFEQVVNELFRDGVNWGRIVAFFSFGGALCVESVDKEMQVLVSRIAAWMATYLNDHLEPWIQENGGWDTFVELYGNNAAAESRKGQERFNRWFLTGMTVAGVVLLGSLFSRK
UniProt Q07820: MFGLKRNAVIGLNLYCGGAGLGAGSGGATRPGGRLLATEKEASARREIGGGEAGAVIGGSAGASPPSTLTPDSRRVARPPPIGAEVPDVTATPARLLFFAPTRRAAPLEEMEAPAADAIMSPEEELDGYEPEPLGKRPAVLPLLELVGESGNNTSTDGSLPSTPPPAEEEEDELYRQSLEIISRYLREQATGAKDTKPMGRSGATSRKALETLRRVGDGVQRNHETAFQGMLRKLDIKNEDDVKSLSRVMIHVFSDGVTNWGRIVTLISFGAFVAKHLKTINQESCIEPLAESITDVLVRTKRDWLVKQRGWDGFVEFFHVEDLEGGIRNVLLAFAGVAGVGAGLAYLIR

One test has as its target Bcl-xL (human) (UniProt Q07817). The test can be described thus: SPR; Biacore S200; Bcl-2 family proteins immobilised on CM5 (amine coupling or His-Capture Kit); peptides and flag-tagged proteins as analytes, single-cycle kinetics, HBS-EP, 25 °C; 1:1 Langmuir model; absence of binding probed at 100 nM and 3 µM; both purified.
For test [1], the target named is His-tagged human Mcl-1 (human) (UniProt Q07820). The description is as above.

Results are given in words; binding and its absence hold for the method and conditions named. Where a sequence is shown, tags or fusion partners need not be part of it.

B1: full-length ApoL1 with N-terminal flag-tag (protein, UniProt O14791-1 28-398)
chain: EEAGARVQQNVPSGTDTGDPQSKPLGDWAAGTMDPESSIFIEDAIKYFKEKVSTQNLLLLLTDNEAWNGFVAAAELPRNEADELRKALDNLARQMIMKDKNWHDKGQQYRNWFLKEFPRLKSELEDNIRRLRALADGVQKVHKGTTIANVVSGSLSISSGILTLVGMGLAPFTEGGSLVLLEPGMELGITAALTGITSSTMDYGKKWWTQAQAHDLVIKSLDKLKEVREFLGENISNFLSLAGNTYQLTRGIGKDIRALRRARANLQSVPHASASRPRVTEPISAESGEQVERVNEPSILEMSRGVKLTDVAPVSFFLVLDVVYLVYESKHLHEGAKSETAEELKKVAQELEEKLNILNNNYKILQADQEL
For the molecule B1, the binding result (with Bcl-xL (human); in test [1]) was “no binding (tested: up to 3 µM)” in each case.
As for RLKSELEDNIRRLRALADGVQKVHK [ApoL1-BH3 peptide (25-mer, residues 146-170)], the binding result (in the test with Bcl-xL (human); in test [1]) was “no binding (tested: up to 3 µM)” each time.

B2: flag-tagged ApoL1-NTD (D61–T172) (domain or fragment, UniProt O14791 61-172)
chain: DPESSIFIEDAIKYFKEKVSTQNLLLLLTDNEAWNGFVAAAELPRNEADELRKALDNLARQMIMKDKNWHDKGQQYRNWFLKEFPRLKSELEDNIRRLRALADGVQKVHKGT
Regarding B2, the binding entry (with Bcl-xL (human); in test [1]) was “no binding (tested: up to 3 µM)” each time.
As to RLKSELEDNARRLRALADGVQKVHK [ApoL1-BH3 (I155A) peptide], the binding entry (with Bcl-xL (human); in test [1]) was “no binding (tested: up to 3 µM)” throughout.

B3: flag-tagged ApoL2-NTD (N2-T113) (domain or fragment, UniProt Q9BQE5 2-113)
chain: NPESSIFIEDYLKYFQDQVSRENLLQLLTDDEAWNGFVAAAELPRDEADELRKALNKLASHMVMKDKNRHDKDQQHRQWFLKEFPRLKRELEDHIRKLRALAEEVEQVHRGT
B3: the binding entry (with Bcl-xL (human); in test [1]) was “no binding (tested: up to 3 µM)” in each case.
As for RLKRELEDHIRKLRALAEEVEQVHR [ApoL2-BH3 peptide (25-mer, residues 87-111)], the binding entry (with Bcl-xL (human); in test [1]) was “no binding (tested: up to 3 µM)” throughout.
